Test [1] has as its target CHD1 (chromodomain helicase DNA-binding protein 1) (human (endogenous in H23)) (UniProt O14646). Description: proximity ligation.
Test [2] has as its target L1 cell adhesion molecule (L1CAM) (human (endogenous in H23)) (UniProt P32004). Description: co-IP.
Test [3] shares this target. Description: proximity ligation.

By UniProt entry, the sequences of proteins in these tests, tags left out. Residues count along the entry.
UniProt O14646: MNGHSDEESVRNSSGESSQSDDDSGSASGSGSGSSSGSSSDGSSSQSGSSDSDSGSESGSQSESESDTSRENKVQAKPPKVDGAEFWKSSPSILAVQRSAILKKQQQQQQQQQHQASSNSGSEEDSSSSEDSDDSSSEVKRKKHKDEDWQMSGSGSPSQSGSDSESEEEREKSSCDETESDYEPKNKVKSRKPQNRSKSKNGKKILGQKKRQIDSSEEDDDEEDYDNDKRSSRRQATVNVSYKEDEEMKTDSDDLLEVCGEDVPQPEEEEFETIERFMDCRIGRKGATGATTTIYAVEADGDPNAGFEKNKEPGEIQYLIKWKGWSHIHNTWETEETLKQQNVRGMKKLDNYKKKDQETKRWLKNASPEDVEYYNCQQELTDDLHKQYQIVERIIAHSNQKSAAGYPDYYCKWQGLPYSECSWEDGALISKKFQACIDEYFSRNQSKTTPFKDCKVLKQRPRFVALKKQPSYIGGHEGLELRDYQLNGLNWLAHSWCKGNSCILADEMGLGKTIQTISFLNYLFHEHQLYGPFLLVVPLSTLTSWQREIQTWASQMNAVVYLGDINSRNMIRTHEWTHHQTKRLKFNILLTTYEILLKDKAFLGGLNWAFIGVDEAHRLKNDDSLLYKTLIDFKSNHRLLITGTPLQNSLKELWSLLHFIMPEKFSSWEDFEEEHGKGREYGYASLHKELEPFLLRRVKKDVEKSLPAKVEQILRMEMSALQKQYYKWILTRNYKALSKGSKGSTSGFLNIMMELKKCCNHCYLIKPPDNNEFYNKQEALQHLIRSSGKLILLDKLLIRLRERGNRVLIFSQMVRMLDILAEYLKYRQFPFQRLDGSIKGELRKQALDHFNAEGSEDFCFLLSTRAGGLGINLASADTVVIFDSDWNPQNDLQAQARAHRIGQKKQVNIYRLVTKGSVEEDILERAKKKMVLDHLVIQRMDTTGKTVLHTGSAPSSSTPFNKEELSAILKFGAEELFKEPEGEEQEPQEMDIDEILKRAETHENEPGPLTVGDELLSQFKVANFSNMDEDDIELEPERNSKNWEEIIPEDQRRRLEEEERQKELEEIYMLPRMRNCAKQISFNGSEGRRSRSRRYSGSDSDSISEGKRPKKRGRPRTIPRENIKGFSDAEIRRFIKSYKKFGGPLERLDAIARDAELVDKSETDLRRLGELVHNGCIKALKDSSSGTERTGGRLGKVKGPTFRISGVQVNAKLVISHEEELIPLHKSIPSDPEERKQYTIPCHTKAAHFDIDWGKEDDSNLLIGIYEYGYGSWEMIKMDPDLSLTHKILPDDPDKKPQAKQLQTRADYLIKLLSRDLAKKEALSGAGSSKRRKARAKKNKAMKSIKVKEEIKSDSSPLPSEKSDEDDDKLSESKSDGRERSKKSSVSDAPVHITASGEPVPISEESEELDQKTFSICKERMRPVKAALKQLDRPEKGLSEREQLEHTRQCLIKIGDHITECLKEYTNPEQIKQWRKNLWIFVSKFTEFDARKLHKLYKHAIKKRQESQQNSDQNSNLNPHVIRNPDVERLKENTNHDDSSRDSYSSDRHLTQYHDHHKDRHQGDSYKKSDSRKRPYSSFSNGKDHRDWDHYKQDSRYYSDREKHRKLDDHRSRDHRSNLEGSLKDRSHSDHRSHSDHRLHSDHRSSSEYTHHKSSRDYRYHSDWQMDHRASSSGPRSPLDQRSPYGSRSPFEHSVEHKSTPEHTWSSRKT
UniProt P32004, residues 20-1257: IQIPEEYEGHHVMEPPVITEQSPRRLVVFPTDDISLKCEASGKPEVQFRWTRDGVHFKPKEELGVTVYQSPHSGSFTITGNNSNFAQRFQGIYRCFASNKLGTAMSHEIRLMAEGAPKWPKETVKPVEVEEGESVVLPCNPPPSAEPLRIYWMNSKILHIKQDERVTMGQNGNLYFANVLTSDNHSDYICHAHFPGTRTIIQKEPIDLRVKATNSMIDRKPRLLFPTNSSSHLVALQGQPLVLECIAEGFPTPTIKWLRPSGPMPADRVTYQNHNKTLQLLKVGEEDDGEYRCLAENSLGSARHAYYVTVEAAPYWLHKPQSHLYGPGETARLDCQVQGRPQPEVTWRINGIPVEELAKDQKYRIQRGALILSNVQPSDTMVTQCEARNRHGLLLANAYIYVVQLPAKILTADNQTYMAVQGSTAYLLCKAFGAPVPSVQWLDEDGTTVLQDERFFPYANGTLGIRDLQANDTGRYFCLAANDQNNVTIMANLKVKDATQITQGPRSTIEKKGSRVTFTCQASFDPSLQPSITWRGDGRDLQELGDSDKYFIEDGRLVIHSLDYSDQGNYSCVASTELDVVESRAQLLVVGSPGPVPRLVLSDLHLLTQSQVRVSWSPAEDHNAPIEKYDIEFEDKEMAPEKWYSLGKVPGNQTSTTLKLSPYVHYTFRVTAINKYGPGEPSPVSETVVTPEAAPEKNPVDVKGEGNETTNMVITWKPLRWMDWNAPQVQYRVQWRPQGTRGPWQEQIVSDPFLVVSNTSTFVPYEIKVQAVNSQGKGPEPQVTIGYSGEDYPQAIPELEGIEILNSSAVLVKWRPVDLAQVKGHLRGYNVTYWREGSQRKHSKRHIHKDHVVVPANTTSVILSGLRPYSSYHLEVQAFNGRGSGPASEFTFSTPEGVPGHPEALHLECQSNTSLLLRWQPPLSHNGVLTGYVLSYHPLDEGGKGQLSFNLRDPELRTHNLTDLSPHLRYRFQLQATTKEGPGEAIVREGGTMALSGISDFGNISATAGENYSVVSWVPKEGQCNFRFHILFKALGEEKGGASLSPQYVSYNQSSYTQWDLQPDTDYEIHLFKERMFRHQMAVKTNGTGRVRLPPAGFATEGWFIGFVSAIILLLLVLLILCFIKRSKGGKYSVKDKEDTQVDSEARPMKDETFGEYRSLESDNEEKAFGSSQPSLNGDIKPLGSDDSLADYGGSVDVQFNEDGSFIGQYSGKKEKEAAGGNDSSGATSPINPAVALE
UniProt P05412: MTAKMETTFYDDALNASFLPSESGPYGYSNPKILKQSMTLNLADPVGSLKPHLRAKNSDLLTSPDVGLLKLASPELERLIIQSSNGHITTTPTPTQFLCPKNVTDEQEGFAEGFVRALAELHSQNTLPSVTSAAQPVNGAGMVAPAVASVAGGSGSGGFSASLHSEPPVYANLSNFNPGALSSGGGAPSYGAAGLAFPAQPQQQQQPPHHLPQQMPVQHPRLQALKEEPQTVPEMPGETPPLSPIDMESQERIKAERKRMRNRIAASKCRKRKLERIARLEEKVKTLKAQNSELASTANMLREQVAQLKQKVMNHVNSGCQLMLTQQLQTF
UniProt Q9NYQ6, residues 21-3014: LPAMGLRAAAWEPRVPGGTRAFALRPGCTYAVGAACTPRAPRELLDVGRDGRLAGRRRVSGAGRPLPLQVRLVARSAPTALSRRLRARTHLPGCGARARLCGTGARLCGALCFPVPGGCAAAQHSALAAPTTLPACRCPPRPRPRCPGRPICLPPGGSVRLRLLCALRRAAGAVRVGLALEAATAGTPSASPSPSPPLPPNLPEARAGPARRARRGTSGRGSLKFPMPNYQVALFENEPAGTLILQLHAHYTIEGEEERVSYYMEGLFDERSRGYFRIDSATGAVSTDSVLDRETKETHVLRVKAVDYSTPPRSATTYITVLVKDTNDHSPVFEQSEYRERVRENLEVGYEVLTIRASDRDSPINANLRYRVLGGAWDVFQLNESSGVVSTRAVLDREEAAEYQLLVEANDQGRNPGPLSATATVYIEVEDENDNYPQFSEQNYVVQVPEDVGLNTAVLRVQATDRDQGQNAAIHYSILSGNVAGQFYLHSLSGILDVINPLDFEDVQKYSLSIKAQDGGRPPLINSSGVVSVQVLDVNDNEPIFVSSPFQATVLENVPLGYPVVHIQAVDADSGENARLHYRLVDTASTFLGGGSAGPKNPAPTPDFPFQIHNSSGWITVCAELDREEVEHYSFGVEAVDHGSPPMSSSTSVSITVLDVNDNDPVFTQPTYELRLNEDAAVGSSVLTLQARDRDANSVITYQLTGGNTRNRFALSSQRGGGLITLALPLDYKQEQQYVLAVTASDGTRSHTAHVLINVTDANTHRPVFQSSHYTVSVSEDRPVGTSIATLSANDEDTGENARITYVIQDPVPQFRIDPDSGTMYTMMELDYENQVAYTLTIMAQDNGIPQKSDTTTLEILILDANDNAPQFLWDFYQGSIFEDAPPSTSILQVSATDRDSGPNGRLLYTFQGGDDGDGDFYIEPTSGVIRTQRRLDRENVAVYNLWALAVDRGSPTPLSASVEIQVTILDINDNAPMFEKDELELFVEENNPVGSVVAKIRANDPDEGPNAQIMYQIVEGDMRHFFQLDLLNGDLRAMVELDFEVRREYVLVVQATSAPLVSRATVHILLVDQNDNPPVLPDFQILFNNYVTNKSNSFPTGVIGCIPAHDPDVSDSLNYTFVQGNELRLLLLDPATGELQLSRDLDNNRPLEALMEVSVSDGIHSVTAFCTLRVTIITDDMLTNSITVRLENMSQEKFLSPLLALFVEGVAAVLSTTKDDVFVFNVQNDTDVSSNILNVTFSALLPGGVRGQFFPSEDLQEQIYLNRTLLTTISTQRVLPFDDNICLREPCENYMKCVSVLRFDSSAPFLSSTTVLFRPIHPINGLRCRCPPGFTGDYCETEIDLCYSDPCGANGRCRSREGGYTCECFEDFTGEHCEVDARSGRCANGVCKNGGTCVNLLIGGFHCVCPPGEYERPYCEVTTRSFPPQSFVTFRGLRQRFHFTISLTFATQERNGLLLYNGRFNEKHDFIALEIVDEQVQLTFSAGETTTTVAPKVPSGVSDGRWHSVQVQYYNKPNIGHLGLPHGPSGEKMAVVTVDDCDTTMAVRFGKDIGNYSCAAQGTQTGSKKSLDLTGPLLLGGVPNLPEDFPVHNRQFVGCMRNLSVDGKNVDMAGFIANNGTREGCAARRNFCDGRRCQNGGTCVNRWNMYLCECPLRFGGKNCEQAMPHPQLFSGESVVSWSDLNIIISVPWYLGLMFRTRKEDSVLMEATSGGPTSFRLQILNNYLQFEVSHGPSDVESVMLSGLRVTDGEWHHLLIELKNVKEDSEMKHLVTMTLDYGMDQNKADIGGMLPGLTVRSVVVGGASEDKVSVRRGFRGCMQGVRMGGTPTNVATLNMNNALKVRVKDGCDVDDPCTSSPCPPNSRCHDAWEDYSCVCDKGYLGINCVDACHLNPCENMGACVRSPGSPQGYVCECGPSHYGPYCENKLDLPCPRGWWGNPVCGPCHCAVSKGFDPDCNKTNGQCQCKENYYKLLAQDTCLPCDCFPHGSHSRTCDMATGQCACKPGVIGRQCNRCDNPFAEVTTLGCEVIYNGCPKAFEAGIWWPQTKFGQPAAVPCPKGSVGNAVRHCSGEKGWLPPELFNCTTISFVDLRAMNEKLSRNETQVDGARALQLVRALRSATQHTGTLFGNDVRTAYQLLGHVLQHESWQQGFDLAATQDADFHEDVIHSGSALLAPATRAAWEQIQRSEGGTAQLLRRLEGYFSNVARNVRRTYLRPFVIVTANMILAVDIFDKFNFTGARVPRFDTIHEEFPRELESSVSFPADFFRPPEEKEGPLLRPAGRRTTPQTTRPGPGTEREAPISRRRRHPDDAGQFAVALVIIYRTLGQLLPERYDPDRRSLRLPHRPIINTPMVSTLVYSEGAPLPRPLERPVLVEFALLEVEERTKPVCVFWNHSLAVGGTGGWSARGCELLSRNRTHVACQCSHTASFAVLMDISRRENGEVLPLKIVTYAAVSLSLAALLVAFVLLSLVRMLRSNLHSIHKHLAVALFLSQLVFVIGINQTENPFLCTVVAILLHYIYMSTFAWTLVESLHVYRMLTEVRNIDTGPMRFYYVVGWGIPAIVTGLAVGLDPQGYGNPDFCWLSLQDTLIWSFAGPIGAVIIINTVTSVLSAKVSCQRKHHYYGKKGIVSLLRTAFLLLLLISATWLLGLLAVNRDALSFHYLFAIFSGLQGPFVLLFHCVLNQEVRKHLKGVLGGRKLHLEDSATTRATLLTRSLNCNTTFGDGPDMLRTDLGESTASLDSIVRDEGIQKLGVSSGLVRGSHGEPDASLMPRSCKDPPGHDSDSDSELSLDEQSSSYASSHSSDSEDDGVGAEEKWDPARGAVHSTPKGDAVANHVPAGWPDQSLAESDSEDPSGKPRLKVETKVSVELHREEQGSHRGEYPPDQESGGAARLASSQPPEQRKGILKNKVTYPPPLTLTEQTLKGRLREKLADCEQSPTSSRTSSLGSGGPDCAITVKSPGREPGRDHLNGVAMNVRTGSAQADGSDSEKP

Results are given in words; binding and its absence hold for the method and conditions named. Binding seen in cells or lysates may run through a third protein. Some binding calls cover weakened binding; strength is not graded here.

Regarding c-Jun (from UniProt P05412 1-331), in test [1], the binding entry is “binds”.
Turning to “CELSR1 (cadherin EGF LAG seven-pass G-type receptor 1) (from UniProt Q9NYQ6 21-3014)”, the binding entry in test [2] and in test [3] was “binds” each time.

The values above are taken from publication doi:10.1101/2025.08.22.671773.
